This is an account of results in publication PMC7819943, “Rice protein-binding microarrays: a tool to detect cis-acting elements near promoter regions in rice”.

This is one part of the list.

This test addresses T1, OsSMF1 (Oryza sativa, UniProt Q6ZLB0 1-436).
T1 sequence: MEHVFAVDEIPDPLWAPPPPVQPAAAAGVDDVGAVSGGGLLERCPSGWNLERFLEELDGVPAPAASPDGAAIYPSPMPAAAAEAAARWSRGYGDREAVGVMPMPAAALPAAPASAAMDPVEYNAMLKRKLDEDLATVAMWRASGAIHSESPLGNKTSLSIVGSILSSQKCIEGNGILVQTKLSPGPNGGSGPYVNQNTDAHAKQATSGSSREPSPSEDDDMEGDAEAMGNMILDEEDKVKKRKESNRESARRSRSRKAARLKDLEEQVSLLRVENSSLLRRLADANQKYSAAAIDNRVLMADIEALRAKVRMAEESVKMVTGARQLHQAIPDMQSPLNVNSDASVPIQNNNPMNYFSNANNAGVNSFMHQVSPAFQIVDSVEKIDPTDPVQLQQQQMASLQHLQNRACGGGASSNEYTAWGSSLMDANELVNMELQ
Put plainly: protein-binding microarray (RPBM); PBS, 2% BSA, 51.3 ng/ul salmon testes DNA, 50 uM zinc acetate, 200 nM TF, 25 C, 1 h; high values mean tight binding. The note with it: protein: recombinant; tags: N-terminal polyhistidine and DsRed monomer fusion (pET32a); chain copies: 2; label: CyDye5-dUTP incorporated in the synthesized complementary strand; 3' TTTTT single-stranded linker to array surface; dsDNA, one strand shown. A digest of the protocol: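 The binding signal is fluorescence intensity per array feature (arbitrary units). Readings came from an Axon 4000B scanner after a washed, 2% BSA-blocked, double-stranded custom Agilent array had been incubated for 1 h at 25 °C with 200 nM protein and 50 µM zinc acetate. The protein was a Ni–NTA-purified transcription factor fused N-terminally to polyhistidine and DsRed, expressed in E. coli BL21-CodonPlus.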
For the sequence “GTAATGAGCTTTTCACGACTTTGTTGAATTTGCTATTATTCGGAGTCACCTAGTGCAG”, the binding signal is 26800 fluorescence intensity (a.u.).
As for “AGTTGTCTTTGGATGTTTGCACTGTCCCATGACGTGATGCCGGAGTCACCTAGTGCAG”, the binding signal is 4260 fluorescence intensity (a.u.).
As for “CCAGCACTGAAAGCTACTGCCACCTCATATGCTGACAAGGCGGAGTCACCTAGTGCAG”, the binding signal was 16800 fluorescence intensity (a.u.).
“CGAGGCATGCCCCGGTGTTGCTGACGAGGGCCTCAAGGCGCGGAGTCACCTAGTGCAG”: the binding signal was 8090 fluorescence intensity (a.u.).
As for “GGGAATATATGCATTGTATCGTATGTGTTTCAGGCACAAGCGGAGTCACCTAGTGCAG”, the binding signal was 16700 fluorescence intensity (a.u.).
Turning to “ATTTGCAAAAGGGGAATGCTTGTGCTCAAAAGGATGAGTGCGGAGTCACCTAGTGCAG”, the binding signal is 3800 fluorescence intensity (a.u.).
Next, “CTGGGCAAAATCTCTCCCATACATACACTACAGCGGCGAACGGAGTCACCTAGTGCAG”: 3290 fluorescence intensity (a.u.); “CTCAATGTCTCGAATGCGTCATCGAGCAAAAGTAATCAGGCGGAGTCACCTAGTGCAG”: 4660 fluorescence intensity (a.u.).
Turning to “ATATTAAACTGTCTAAGAACATAACTCGAATCCGTATTAACGGAGTCACCTAGTGCAG”, the binding signal is 4930 fluorescence intensity (a.u.).
With “CCATGGCGGGGTGTATTGTTGTTGTATTTGGGGTTCTGGTCGGAGTCACCTAGTGCAG”, the binding signal was 3630 fluorescence intensity (a.u.).
Take “GGCAGCCACGTCCACCTGTCCCTCCACGCCCCTCCCGTGCCGGAGTCACCTAGTGCAG”: the binding signal is 9530 fluorescence intensity (a.u.).
As to “CAAATCCAAAACCCTTGCTCCCACAGGAGTGAACACGACGCGGAGTCACCTAGTGCAG”, the binding signal was 3400 fluorescence intensity (a.u.).
“TCTAGTTAATACGTGTGCTTGGGAGTCCTTGCAATTTGAACGGAGTCACCTAGTGCAG”: the binding signal is 3800 fluorescence intensity (a.u.).
“ACCCAAACTGGAAACGTGAAGGGCCCGTGAAATAAGAGATCGGAGTCACCTAGTGCAG”: the binding signal was 36900 fluorescence intensity (a.u.).
“GGCCATCACAGTCATAAGTTAGACACGTTATTATTGATGGCGGAGTCACCTAGTGCAG”: the binding signal is 35100 fluorescence intensity (a.u.).
Next, “ATTTTCTGTTAAACTTTTGATTGGATCCATCTTTGTAATCCGGAGTCACCTAGTGCAG”: 35400 fluorescence intensity (a.u.); “TGACTGCTGGCTCACATCCAGTCATTGGCTTAGCTAGCTGCGGAGTCACCTAGTGCAG”: 4160 fluorescence intensity (a.u.); “TTCTATTCTCCCAAAATTCCTATAGAACGAGATATTCCATCGGAGTCACCTAGTGCAG”: 22200 fluorescence intensity (a.u.).
Regarding “AGCCTATGGCGCCACGACGACGGGTGCATGGCGTGGCTAGCGGAGTCACCTAGTGCAG”, the binding signal was 3750 fluorescence intensity (a.u.).
With “ATCCCGGGGAAAATCCGCACCGAGCAACCGACGTGTTCCGCGGAGTCACCTAGTGCAG”, the binding signal was 3530 fluorescence intensity (a.u.).
Next, “GAAGGCGCTGCTGTCGTGGGCGGTGGAGGAGCTCCCCATGCGGAGTCACCTAGTGCAG”: 4110 fluorescence intensity (a.u.).
Next, “TGCAAATCCAATCCAATCCAATCCCACCCCAAGCTCGCGGCGGAGTCACCTAGTGCAG”: 3670 fluorescence intensity (a.u.).
For the sequence “TGATTTCGTTTCGACGATCTCGAGGCGCCGCGGCGTGACGCGGAGTCACCTAGTGCAG”, the binding signal was 29200 fluorescence intensity (a.u.).
With “GCATATAAACTTAGTGGGTGATCAATAACCGACTTTGCATCGGAGTCACCTAGTGCAG”, the binding signal was 3240 fluorescence intensity (a.u.).
Turning to “CCGCGACCAACGCGAGGCGAGCGAGACGCGTCATCTCGCCCGGAGTCACCTAGTGCAG”, the binding signal was 8540 fluorescence intensity (a.u.).
Regarding “ACCTTTAGCTTTTCCTGCCTCCCTCCTTCTTTCCCTCCTCCGGAGTCACCTAGTGCAG”, the binding signal was 21900 fluorescence intensity (a.u.).
As for “CCAGTTCGGGATGGGCCCCAGCCAGGTCATCCCTCGCCGGCGGAGTCACCTAGTGCAG”, the binding signal was 7160 fluorescence intensity (a.u.).
Next, “TATATACAAGTTCACCCCGAAACCTAGTCAGAGTATGACACGGAGTCACCTAGTGCAG”: 4240 fluorescence intensity (a.u.); “GGCGCTGCAGCACGTACGTGGTTGGTTGGTTGGTTGGTTGCGGAGTCACCTAGTGCAG”: 4550 fluorescence intensity (a.u.).
In the case of “CGAGTGCCACGCGTGCGCCCACCGCCACGTCACCGATCCCCGGAGTCACCTAGTGCAG”, the binding signal was 53800 fluorescence intensity (a.u.).
For “GAGCCTTGATCACGTCACTTCTCTCCTCAGGACTAGTGGCCGGAGTCACCTAGTGCAG” the value was 3370 fluorescence intensity (a.u.); for “GAGTATGGTAGATGGTGTCATGATCTCACGCCGTGTCTATCGGAGTCACCTAGTGCAG”, 5250 fluorescence intensity (a.u.); for “AAATCAATAGTTTGGACAATACGTGTCTGCGTGTTCGTAACGGAGTCACCTAGTGCAG”, 4560 fluorescence intensity (a.u.).
For the sequence “TTTGTATTTCTGTCATGATTATGATGGTAGTAAATATGTACGGAGTCACCTAGTGCAG”, the binding signal was 5030 fluorescence intensity (a.u.).
As for “TCGTATCGCTTTGGCTATGTGGGCTTGGTCACGTCCACTGCGGAGTCACCTAGTGCAG”, the binding signal is 3590 fluorescence intensity (a.u.).
With “CGCAGAGATGCCTGACTGGGGAGGTCATCCCAGTCCGGTGCGGAGTCACCTAGTGCAG”, the binding signal was 3850 fluorescence intensity (a.u.).
Regarding “GTGTAATAACACACTTGACAGTTGACGCGGCATCGCGAGACGGAGTCACCTAGTGCAG”, the binding signal is 4560 fluorescence intensity (a.u.).
For “GAGAGTATAACAGAAGCCACCTGGCGTCCGTGCCCACGGCCGGAGTCACCTAGTGCAG” the value was 3670 fluorescence intensity (a.u.).
For “AGCGGCGTCGTCTCGGCGGTGGCCGGTGCCACGGCGGCGGCGGAGTCACCTAGTGCAG”, the binding signal was 6200 fluorescence intensity (a.u.).
As for “GGTTGGCGCGGCCGACCCACCGTCCCACTCCCACATGCCACGGAGTCACCTAGTGCAG”, the binding signal was 3340 fluorescence intensity (a.u.).
As for “ATTCTTCAAAATACAAGAATTTCCTAGGGACAAAAGTTTCCGGAGTCACCTAGTGCAG”, the binding signal was 13900 fluorescence intensity (a.u.).
Take “TACAGGAACAAATCAAGAAAGTTCCAGCTCACCAGCCAGTCGGAGTCACCTAGTGCAG”: the binding signal was 4920 fluorescence intensity (a.u.).
